In all, about 1,300 compounds went through this assay and about 120 (9.2%) were called active. Not shown: some 35% with an inconclusive outcome. Calls follow the shape of the dose curve; as a rule, active = well fitted activation curve with a large enough effect; inconclusive = small, poorly fitted or top-dose-only effect; inactive = flat fitted curve, though single readings scatter. This is a selection; strong and weak results do not stand in their true shares.
What follows are compounds tested against Luciferin 4-monooxygenase (Photinus pyralis) (UniProt P08659) (assay: Firefly luciferase (FLuc-C-HiBiT) SDR gain of signal screen - plus ATP). Details: purified FLuc-C-HiBiT + ATP, HiBiT complementation luminescence; at 49.3 µM (top of the series).
Text: PI: James Inglese Ph.D. National Center for Advancing Translational Sciences (NCATS), National Institute of Health (NIH), Maryland Discovery and optimization of novel protein-binding ligands underlies many of the methods and applications of biology, drug discovery, clinical diagnostics, and environmental toxicology. Assays for detecting the interaction of, for example, a molecule with a macromolecular target also referred to here as the target of interest (TOI) is dependent on a compatible output technology. Depending on the nature and knowledge surrounding the TOI, whether a receptor, enzyme, regulatory subunit or scaffold, or a sequence-defined nucleic acid folded into a complex tertiary structure, assay strategies can vary widely. Here we exploit ligand-biased changes in the structural dynamics of the target protein to control reporter alpha complementation allowing a non-competitive, non-functional, non-separation measure of ligand-target interaction. […]
1. […] HiBiT SDR assay measured using CCD-based camera (ViewLux) with settings as follows: Exposure, 1 sec; Gain, High; Speed, Slow; Binning, 2X. […]
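Also: signal reports ligand binding via conformational change of the enzyme rather than luciferase catalysis; % of control where 0% means no effect; nearly all actives have a fitted effect of over 55% in size.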

By UniProt entry, the sequences of proteins in these tests, tags left out.
UniProt P08659, whole entry, looked up: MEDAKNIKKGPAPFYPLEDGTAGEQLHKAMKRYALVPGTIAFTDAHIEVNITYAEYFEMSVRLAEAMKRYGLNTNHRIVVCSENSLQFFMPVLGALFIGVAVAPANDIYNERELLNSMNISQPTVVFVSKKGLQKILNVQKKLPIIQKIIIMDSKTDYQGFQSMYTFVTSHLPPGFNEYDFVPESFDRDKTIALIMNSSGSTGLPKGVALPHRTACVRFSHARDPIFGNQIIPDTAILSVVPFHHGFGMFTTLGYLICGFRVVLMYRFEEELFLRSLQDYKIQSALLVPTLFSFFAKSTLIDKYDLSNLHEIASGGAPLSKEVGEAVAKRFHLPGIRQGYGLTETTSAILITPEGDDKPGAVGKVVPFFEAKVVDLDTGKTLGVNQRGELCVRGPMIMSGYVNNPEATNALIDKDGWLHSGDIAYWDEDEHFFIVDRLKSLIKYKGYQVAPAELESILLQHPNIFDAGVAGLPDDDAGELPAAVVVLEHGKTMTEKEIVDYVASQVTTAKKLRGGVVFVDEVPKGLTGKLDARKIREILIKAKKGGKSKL

SMILES | activation (gain of signal)
CN1CCNc2cc(-c3ccc([S+](C)(=O)[O-])cc3)ncc2C1 | inactive: 13.9%

From PubChem BioAssay AID1963319 (National Center for Advancing Translational Sciences (NCATS), 2024)
